Measured values taken from patent US20100112012A1, “MODULATION OF IMMUNE RESPONSES” (CLEVELAND CLINIC FOUNDATION, priority 2005, published 2010).
For at least one compound, name, drawing or mass did not settle the structure.

Columns and labels:
p53 = experiment: Screening for p53-activating compounds, p53-responsive reporter in RCC45ConALacZ cells; type: cell-based, human
Method: Transient transfections. 2×10^5 cells were plated into 6-well plates and, after overnight incubation, transfected with Lipofectamin Plus reagent (Gibco BRL) with 0.5 μg of reporter plasmids (p21-ConALuc or pNF-κBLuc) in combination with different concentrations of plasmids expressing p53, Arf, Ss-IκB, or siHDM2. Corresponding empty vectors were added in all transfections up to 2 μg of total DNA. Normalization of transfection efficiency was done by adding 0.2 μg of pCMV-LacZ plasmid. Luciferase activity and β-galactosidase activity were measured in lysates prepared 48 hours after transfection with Cell Lysis Buffer (Promega) by the luciferase assay system (Promega) or β-galactosidase enzyme system (Promega). Luminometric and colorimetric reactions were read on the Wallack 1420 plate reader (Perkin Elmer). Stable transduction of reporters. […] Luciferase or β-galactosidase activity and protein concentration were measured in aliquots of cell lysates using standard kits (Promega, Luciferase and β-galactosidase assay systems, Biorad Protein Assay Kit).
The DiverSet library of 34,000 chemical compounds and focused libraries of structural analogues of selected hits were provided by Chembridge, Calif. […] After 24 h, lysis buffer with ortho-nitrophenyl-β-D-galactopyranoside (ONPG) was added and β-galactosidase activity was estimated colorimetrically by a multiwell plate reader.

topoisomerase II = conditions: reference (6); cited from earlier work

COc1cc(NS(C)(=O)=O)ccc1Nc1c2ccccc2nc2ccccc12 [m-AMSA, amsacrine]
activation of the p53-dependent reporter (p53 transactivation) in RCC (p53): only QC was an effective inducer
poisoning of topoisomerase II (topoisomerase II): causes DNA damage by poisoning topoisomerase II
